According to patent US20240299393A1, “SMALL MOLECULE DISRUPTORS OF PROTEIN INTERACTIONS IN HISTONE DEACETYLASE COMPLEXES” (Dana-Farber Cancer Institute, Inc., priority 2021, published 2024):
Some results were stated once for a whole list of compounds, not compound by compound. For at least one compound, name, drawing or mass did not settle the structure.

Tests used:
[1] = tested on: SK-N-BE(2)-C neuroblastoma cells; test: Matrigel cell invasion assay; type: cell-based, human; details: FIG. 8W
Experimental: SK-N-BE(2)C neuroblastoma cells were seeded at 5×10^4 cells per well density in a 24-well plate. Cells were treated for five days with compounds or with DMSO control in Dulbecco's Modified Eagle Medium containing 10% fetal bovine serum, penicillin and streptomycin, in quadruplicate. On Day five, cells were changed to serum-free medium with the same compound concentrations as during the 5-day treatment, and 50,000 cells were seeded on top of a Corning BioCoat Matrigel Invasion Chamber (cat #354480). Medium with 20% FBS was added as chemoattractant to the bottom of the well. Invasion assay was performed per manufacturer instructions. After 48 h, non-invading cells were removed by scrubbing with a cotton tip swab. Cells that remained inside the matrix were stained with 1% crystal violet dye and counted by eye. Percentage of invasive cells was calculated relative to DMSO control.

[2] = tested on: Rpd3-regulated genes (URS-URA3, INO1, IME2, CAR1, SPO13, TRK2); test: RT-qPCR of Rpd3-regulated genes in yeast; type: cell-based, S. cerevisiae; details: WT MaV208, FIG. 2K
Experimental: After yeast cells reached OD600 nm ˜0.5 in 0.8-1 mL of YPD, they were grown for two more hours at room temperature before being centrifuged to remove supernatant and freezing pellets on dry ice. For compound treatments, yeast cells at OD600 nm˜0.5 in YPD were incubated at room temperature for two hours with DMSO (1-1.6%) or the desired compound (from 25 mM stock in 100% DMSO) in an 2 mL-tube for a final volume of 0.8 mL in YPD, before being centrifuged, washed and frozen as described above. Yeast cells were then harvested for RNA extraction using a RiboPure RNA Purification Kit (Invitrogen, cat #AM1926), which involves mechanical cell wall disruption, phenol extraction of the lysate, and RNA purification using glass fiber, and filter-based RNA purification columns. RNA concentration was measured for individually purified RNA samples using a NanoDrop spectrophotometer. A total of 1 μg RNA from each sample was used for reverse transcription following a published procedure [Choi, S. G. et al 2012].
The RT-qPCR protocol used in this study was described elsewhere [Choi et al 2012]. Culture, RNA extraction, and compound treatments for neuroblastoma SK-N-BE(2)-C cells are described below. […] Quantitative PCR was conducted with a QuantStudio real-time PCR system from Applied Biosystems, with the following settings: 50° C./2 min, 95° C./10 min, 96° C./15 s/40 cycles, and 60° C./30 s. […]

SMILES | reduction of migration of neuroblastoma cells [1] | increased expression of Rpd3-regulated genes [2]
C[C@@H](NC(=O)c1c(O)n2ccccc2nc1=O)c1ccccc1 [E6R, 4-hydroxy-2-oxo-N—((R)-1-phenylethyl)-3,4-dihydro-2H-pyrido[, 2-a]pyrimidine-3-carboxamide] | 2.5 to 10 fold | 
CC(/C=C/C(=O)NO)=C\[C@@H](C)C(=O)c1ccc(N(C)C)cc1 [TSA, trichostatin A] | 2.5 to 10 fold | 1.5 to 9 fold
